The text below walks through data of patent US20030143712A1.

Amino acid sequences for entries named in this document (tags omitted).
UniProt O75376: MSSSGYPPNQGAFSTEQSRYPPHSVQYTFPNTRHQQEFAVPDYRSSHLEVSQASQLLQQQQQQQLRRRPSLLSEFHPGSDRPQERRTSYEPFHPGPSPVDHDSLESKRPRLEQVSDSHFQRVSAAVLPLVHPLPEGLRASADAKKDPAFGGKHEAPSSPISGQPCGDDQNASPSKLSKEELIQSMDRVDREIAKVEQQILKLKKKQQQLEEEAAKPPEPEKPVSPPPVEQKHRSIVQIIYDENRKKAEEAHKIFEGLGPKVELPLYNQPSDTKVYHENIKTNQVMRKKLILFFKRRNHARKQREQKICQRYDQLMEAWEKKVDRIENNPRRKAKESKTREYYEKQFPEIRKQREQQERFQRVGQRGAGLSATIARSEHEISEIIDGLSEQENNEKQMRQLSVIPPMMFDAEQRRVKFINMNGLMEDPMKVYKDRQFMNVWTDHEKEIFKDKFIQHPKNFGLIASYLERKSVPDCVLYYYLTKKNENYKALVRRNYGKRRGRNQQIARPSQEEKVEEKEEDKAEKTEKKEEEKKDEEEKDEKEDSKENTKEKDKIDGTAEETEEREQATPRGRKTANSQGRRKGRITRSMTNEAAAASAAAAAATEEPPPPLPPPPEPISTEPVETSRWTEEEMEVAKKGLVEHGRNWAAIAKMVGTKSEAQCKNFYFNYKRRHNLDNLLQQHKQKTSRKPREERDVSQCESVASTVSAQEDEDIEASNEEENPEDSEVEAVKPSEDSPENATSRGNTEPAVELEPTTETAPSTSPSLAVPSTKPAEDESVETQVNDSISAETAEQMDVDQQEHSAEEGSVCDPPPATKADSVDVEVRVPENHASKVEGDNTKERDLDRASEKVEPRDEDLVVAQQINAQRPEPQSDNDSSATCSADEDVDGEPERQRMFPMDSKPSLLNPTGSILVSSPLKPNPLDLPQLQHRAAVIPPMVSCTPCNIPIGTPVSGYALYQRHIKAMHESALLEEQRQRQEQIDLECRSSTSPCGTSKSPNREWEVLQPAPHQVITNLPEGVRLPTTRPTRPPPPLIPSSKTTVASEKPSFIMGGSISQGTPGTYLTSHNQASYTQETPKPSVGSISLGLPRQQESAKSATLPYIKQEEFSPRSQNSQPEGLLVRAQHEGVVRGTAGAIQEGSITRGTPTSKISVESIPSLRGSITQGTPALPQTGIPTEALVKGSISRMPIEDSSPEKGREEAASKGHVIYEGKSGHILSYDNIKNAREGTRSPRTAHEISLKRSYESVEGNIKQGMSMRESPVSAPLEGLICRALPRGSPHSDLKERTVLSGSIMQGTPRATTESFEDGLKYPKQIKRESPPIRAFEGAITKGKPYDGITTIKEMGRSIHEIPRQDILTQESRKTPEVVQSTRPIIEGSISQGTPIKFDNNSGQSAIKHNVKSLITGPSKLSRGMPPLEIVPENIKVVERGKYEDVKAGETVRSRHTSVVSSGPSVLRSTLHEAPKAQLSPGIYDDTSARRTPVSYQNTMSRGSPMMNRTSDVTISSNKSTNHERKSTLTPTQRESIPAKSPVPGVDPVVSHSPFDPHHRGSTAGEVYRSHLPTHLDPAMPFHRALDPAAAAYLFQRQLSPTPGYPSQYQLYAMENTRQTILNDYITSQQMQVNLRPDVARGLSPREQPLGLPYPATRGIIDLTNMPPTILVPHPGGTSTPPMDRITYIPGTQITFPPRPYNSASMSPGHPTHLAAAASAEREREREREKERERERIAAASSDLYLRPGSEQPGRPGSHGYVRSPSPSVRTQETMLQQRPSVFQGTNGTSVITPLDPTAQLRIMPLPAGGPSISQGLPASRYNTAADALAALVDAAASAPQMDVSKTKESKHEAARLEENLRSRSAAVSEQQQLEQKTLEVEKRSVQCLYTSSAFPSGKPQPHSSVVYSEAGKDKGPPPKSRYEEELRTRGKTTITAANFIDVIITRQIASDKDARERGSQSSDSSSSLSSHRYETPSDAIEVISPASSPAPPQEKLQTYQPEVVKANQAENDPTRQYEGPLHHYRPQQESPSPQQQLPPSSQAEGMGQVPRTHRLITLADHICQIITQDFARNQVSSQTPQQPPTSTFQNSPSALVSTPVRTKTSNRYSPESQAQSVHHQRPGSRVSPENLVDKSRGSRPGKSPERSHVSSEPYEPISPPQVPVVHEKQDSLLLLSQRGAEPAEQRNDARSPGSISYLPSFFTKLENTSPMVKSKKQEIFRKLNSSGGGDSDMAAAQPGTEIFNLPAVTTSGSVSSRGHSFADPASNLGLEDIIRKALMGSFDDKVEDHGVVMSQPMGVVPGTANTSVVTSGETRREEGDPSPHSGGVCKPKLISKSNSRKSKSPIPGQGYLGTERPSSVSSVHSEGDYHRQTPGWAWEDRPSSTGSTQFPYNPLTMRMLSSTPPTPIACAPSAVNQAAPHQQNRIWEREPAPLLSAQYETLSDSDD
UniProt Q9Y618: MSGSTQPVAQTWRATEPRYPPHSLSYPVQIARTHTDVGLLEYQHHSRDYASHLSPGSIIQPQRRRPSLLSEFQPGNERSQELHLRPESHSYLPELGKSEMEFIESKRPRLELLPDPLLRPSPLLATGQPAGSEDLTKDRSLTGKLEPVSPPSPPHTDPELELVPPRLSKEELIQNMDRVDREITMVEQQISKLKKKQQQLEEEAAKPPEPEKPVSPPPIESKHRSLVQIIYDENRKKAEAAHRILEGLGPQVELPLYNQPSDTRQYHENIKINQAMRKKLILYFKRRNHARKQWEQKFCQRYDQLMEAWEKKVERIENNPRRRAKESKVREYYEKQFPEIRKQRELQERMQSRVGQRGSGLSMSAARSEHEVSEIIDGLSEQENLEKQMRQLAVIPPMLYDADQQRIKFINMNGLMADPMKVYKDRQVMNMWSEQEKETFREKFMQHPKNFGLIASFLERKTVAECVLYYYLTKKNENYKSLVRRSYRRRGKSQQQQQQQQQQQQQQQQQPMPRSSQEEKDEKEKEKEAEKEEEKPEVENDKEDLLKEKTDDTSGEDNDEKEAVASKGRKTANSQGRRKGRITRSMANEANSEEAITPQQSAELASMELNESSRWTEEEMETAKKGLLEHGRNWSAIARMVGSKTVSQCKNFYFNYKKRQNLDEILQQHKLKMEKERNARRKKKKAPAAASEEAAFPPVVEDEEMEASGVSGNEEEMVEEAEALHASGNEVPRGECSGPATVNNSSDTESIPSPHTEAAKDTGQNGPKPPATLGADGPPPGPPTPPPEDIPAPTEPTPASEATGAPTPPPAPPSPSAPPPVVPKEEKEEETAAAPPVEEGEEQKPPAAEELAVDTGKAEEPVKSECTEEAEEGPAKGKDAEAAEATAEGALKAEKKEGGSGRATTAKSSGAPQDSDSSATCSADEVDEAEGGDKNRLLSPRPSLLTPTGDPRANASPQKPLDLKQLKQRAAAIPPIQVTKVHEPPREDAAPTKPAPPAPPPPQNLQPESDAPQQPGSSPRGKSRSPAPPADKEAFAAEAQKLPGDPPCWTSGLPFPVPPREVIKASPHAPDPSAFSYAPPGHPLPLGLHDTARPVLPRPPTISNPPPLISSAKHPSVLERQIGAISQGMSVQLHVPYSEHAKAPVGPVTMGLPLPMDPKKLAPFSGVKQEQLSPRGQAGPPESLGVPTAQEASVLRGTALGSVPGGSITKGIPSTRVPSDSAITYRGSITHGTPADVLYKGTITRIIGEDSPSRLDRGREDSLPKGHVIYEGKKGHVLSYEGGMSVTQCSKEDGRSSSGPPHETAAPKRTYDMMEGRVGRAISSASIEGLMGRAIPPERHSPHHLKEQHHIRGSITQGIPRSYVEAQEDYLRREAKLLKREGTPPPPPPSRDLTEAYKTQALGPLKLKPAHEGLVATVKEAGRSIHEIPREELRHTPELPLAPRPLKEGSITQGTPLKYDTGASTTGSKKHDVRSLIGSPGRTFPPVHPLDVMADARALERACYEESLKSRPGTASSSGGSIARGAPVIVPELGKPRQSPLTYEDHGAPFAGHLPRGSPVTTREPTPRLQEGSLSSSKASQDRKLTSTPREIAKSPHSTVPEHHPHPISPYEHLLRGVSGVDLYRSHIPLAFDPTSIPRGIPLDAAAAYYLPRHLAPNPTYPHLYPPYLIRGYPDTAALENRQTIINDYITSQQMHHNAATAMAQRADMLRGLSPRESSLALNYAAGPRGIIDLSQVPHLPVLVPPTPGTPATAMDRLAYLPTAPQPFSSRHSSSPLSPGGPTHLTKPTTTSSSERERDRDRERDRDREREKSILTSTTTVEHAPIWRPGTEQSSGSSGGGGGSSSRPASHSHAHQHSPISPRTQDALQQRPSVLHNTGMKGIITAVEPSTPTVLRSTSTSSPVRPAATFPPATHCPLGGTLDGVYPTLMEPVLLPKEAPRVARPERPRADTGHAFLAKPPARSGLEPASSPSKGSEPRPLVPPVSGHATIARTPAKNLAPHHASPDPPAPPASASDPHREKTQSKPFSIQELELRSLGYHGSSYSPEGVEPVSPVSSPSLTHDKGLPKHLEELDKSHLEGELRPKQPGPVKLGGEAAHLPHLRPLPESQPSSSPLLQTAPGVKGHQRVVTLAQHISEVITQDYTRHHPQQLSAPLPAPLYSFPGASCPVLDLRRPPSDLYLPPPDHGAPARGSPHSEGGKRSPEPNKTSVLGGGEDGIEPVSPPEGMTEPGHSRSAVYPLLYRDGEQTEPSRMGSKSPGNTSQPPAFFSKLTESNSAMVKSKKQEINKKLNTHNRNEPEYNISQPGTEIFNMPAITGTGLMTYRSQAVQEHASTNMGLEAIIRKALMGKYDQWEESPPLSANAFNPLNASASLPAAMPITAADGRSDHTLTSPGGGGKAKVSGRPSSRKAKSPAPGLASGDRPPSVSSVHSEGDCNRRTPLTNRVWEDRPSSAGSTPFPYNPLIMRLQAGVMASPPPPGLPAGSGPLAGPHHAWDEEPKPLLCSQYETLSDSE
UniProt Q63943: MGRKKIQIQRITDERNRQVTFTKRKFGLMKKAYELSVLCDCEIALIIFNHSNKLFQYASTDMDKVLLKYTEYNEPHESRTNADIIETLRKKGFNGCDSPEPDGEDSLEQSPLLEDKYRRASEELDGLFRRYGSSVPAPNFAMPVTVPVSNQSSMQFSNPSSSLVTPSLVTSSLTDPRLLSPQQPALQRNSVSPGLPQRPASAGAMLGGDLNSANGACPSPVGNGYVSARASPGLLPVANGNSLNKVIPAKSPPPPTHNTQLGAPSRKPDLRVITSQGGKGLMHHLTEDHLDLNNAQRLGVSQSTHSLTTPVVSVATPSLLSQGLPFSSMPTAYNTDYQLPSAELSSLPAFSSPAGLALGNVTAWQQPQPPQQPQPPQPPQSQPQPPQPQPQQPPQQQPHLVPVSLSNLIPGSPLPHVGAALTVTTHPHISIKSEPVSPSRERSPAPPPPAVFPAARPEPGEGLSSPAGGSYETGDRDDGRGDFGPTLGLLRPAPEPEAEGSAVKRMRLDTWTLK
UniProt Q14814: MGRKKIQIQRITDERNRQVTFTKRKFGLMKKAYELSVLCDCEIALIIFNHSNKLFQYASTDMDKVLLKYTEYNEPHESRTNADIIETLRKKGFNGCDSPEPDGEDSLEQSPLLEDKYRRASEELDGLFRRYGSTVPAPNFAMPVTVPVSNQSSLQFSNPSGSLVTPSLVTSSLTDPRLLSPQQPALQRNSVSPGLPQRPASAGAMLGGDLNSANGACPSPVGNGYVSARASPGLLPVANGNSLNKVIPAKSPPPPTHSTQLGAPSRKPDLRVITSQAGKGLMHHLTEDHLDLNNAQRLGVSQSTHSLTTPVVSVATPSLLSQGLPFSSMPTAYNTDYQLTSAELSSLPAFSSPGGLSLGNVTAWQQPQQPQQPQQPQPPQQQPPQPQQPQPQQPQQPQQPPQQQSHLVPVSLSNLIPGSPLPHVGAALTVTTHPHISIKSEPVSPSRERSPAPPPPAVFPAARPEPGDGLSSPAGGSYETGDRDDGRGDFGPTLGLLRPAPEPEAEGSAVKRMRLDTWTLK

Test [1] concerns the target endogenous N-CoR (UniProt O75376). The test is described as follows: GST pull-down from cell extracts.
In test [2] the target is endogenous SMRT (UniProt Q9Y618). Briefly: GST pull-down from cell extracts.
Test [3] has as its target endogenous N-CoR (UniProt O75376). The test is described as follows: co-immunoprecipitation, western blot. (In western blotting, separated proteins are transferred to a membrane and probed.)
The target in test [4] is endogenous SMRT (UniProt Q9Y618). The test is described as follows: co-immunoprecipitation, western blot.
Test [5] concerns the target endogenous MEF2D of DO11.10 T-cell hybridoma cells (UniProt Q63943). The test is described as follows: anti-FLAG immunoprecipitation from DO11.10 polyclonal cell lines.
Test [6] has the same target. Briefly: anti-FLAG co-immunoprecipitation from stable polyclonal cell lines, western blot.
The target of test [7] is endogenous MEF2D of human primary thymocytes (human) (UniProt Q14814). The test is described as follows: immunoprecipitation with anti-HDAC7 antiserum from human primary thymocyte extracts, western blot for MEF2D.

Where a chain is given by its changes, count along the chain named. No constants are given. Whether binding was seen depends on the method and setting. For part of these data: Binding seen in cells or lysates may run through a third protein. Some entries that bind do so weakly or less than the wild type. For part of these data: Sequences can lack the tags named with a protein.

B1: GST-HDAC7(aa 438-912) (enzyme, not shown: a dimerising Fc or GST)
chain: QGGHRPLSRAQSSPAAPASLSAPEPASQARVLSSSETPARTLPFTTGLIYDSVMLKHQCSCGDNSRHPEHAGRIQSIWSRLQERGLRSQCECLRGRKASLEELQSVHSERHVLLYGTNPLSRLKLDNGKLAGLLAQRMFVMLPCGGVGVDTDTIWNELHSSNAARWAAGSVTDLAFKVASRELKNGFAVVRPPGHHADHSTAMGFCFFNSVAIACRQLQQQSKASKILIVDWDVHHGNGTQQTFYQDPSVLYISLHRHDDGNFFPGSGAVDEVGAGSGEGFNVNVAWAGGLDPPMGDPEYLAAFRIVVMPIAREFSPDLVLVSAGFDAAEGHPAPLGGYHVSAKCFGYMTQQLMNLAGGAVVLALEGGHDLTAICDASEACVAALLGNRVDPLSEEGWKQKPNLNAIRSLEAVIRVHSKYWGCMQRLASCPDSWVPRVPGADKEEVEAVTALASLSVGILAEDRPSEQLVEEEEP
Regarding B1, the binding result in the test with endogenous N-CoR [1] and in the test with endogenous SMRT [2] was “binds” each time.

B2: HDAC7-FLAG (full-length human HDAC7 with C-terminal FLAG tag, expressed in cells) (enzyme, not shown: small tags and cut ends)
chain: MDLRVGQRPPVEPPPEPTLLALQRPQRLHHHLFLAGLQQQRSVEPMRLSMDTPMPELQVGPQEQELRQLLHKDKSKRSAVASSVVKQKLAEVILKKQQAALERTVHPNSPGIPYRTLEPLETEGATRSMLSSFLPPVPSLPSDPPEHFPLRKTVSEPNLKLRYKPKKSLERRKNPLLRKESAPPSLRRRPAETLGDSSPSSSSTPASGCSSPNDSEHGPNPILGSEADSDRRTHPTLGPRGPILGSPHTPLFLPHGLEPEAGGTLPSRLQPILLLDPSGSHAPLLTVPGLGPLPFHFAQSLMTTERLSGSGLHWPLSRTRSEPLPPSATAPPPPGPMQPRLEQLKTHVQVIKRSAKPSEKPRLRQIPSAEDLETDGGGPGQVVDDGLEHRELGHGQPEARGPAPLQQHPQVLLWEQQRLAGRLPRGSTGDTVLLPLAQGGHRPLSRAQSSPAAPASLSAPEPASQARVLSSSETPARTLPFTTGLIYDSVMLKHQCSCGDNSRHPEHAGRIQSIWSRLQERGLRSQCECLRGRKASLEELQSVHSERHVLLYGTNPLSRLKLDNGKLAGLLAQRMFVMLPCGGVGVDTDTIWNELHSSNAARWAAGSVTDLAFKVASRELKNGFAVVRPPGHHADHSTAMGFCFFNSVAIACRQLQQQSKASKILIVDWDVHHGNGTQQTFYQDPSVLYISLHRHDDGNFFPGSGAVDEVGAGSGEGFNVNVAWAGGLDPPMGDPEYLAAFRIVVMPIAREFSPDLVLVSAGFDAAEGHPAPLGGYHVSAKCFGYMTQQLMNLAGGAVVLALEGGHDLTAICDASEACVAALLGNRVDPLSEEGWKQKPNLNAIRSLEAVIRVHSKYWGCMQRLASCPDSWVPRVPGADKEEVEAVTALASLSVGILAEDRPSEQLVEEEEPMNL
Turning to B2, the binding entry (with endogenous N-CoR [3]; in the test with endogenous SMRT [4]; in test [5]; in test [6]) was “binds” each time.

B3: FLAG-tagged HDAC7-Q87AE91A (expressed in DO11.10 cells) (enzyme, not shown: small tags and cut ends)
chain: B2 chain with Q87A, E91A
B3: in test [5], the binding entry is recorded as “binds”.

B4: endogenous HDAC7 (human cells: cell-line lysates, human primary thymocytes) (enzyme)
chain: B2 chain
B4: the binding entry in test [7] was “binds”.

B5: FLAG-tagged amino-terminus (aa 1-487) domain of HDAC7 (enzyme, not shown: small tags and cut ends)
chain: MDLRVGQRPPVEPPPEPTLLALQRPQRLHHHLFLAGLQQQRSVEPMRLSMDTPMPELQVGPQEQELRQLLHKDKSKRSAVASSVVKQKLAEVILKKQQAALERTVHPNSPGIPYRTLEPLETEGATRSMLSSFLPPVPSLPSDPPEHFPLRKTVSEPNLKLRYKPKKSLERRKNPLLRKESAPPSLRRRPAETLGDSSPSSSSTPASGCSSPNDSEHGPNPILGSEADSDRRTHPTLGPRGPILGSPHTPLFLPHGLEPEAGGTLPSRLQPILLLDPSGSHAPLLTVPGLGPLPFHFAQSLMTTERLSGSGLHWPLSRTRSEPLPPSATAPPPPGPMQPRLEQLKTHVQVIKRSAKPSEKPRLRQIPSAEDLETDGGGPGQVVDDGLEHRELGHGQPEARGPAPLQQHPQVLLWEQQRLAGRLPRGSTGDTVLLPLAQGGHRPLSRAQSSPAAPASLSAPEPASQARVLSSSETPARTLPFTTGLIY
In the case of B5, the binding entry in test [6] is listed as “binds”.
